Record: PubChem BioAssay AID504774 (Drosophila RNAi Screening Center, 2011)
Screen: 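Genes required for cells to withstand methyl methanesulphonate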 (primary screen). Cell system: Drosophila Kc167 cells. Reagents: long dsRNA against Drosophila genes, about 0.25 µg dsRNA per well. Time to read-out: about 6 days: 3 days knock-down, then 3 days with or without MMS. Challenge: methyl methanesulphonate 0.004% (w/v) for 3 days after knock-down. Read-out: 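Viability in wells given MMS, read as ATP luminescence, normalised by quantiles plate by plate and averaged across replicates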. Reading the numbers: mean viability with MMS and viability with MMS: higher = more surviving cells after MMS.
The screen tested about 23,000 reagents; this is a random part of those with a known target gene and a result. 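Values are quantile-normalised luminescence on an arbitrary scale; higher means more cells surviving MMS.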 Further read-outs or replicates are left out here.

| predicted target | dsRNA | mean viability with MMS | viability with MMS, replicate 1 |
| --- | --- | --- | --- |
| CG31300 | DRSC14657 | 3.46e6 | 3.96e6 |
| stai | DRSC22235 | 3.35e6 | 3.84e6 |
| dila | DRSC06607 | 3.41e6 | 3.84e6 |
| Nup93-2 | DRSC16221 | 3.53e6 | 4.07e6 |
| CG8249 | DRSC07125 | 3.55e6 | 4.16e6 |
| CG14965 | DRSC08424 | 3.76e6 | 4.26e6 |
| CG9451 | DRSC11074 | 3.48e6 | 3.84e6 |
| daed | DRSC00299 | 3.32e6 | 3.49e6 |
| Cht7 | DRSC08538 | 3.42e6 | 3.94e6 |
| Cht7 | DRSC21783 | 3.33e6 | 3.83e6 |
| CG11122 | DRSC19382 | 3.57e6 | 4.18e6 |
| Ugt37A1 | DRSC02114 | 3.59e6 | 4.00e6 |
| CG12128 | DRSC06104 | 3.58e6 | 4.06e6 |
| lncRNA:roX2 | DRSC22237 | 3.52e6 | 3.93e6 |
| CG5282 | DRSC11775 | 3.53e6 | 3.99e6 |
| Nmdar2 | DRSC18183 | 3.95e6 | 4.22e6 |
| Nmdar2 | DRSC18511 | 3.85e6 | 4.29e6 |
| Nmdar2 | DRSC18569 | 3.69e6 | 4.30e6 |
| CG10013 | DRSC14175 | 3.70e6 | 4.24e6 |
| CG30039 | DRSC21794 | 3.40e6 | 3.91e6 |
| Tti1 | DRSC15163 | 3.38e6 | 3.93e6 |
| Rs1 | DRSC05945 | 3.46e6 | 3.87e6 |
| CG10366 | DRSC02046 | 3.61e6 | 3.86e6 |
| Tbcd | DRSC00273 | 3.28e6 | 3.61e6 |
| Ir75a | DRSC10188 | 3.55e6 | 3.99e6 |
| Drsl2 | DRSC08160 | 3.67e6 | 4.18e6 |
| dind | DRSC16294 | 3.44e6 | 3.86e6 |
| Taf5 | DRSC07562 | 3.18e6 | 3.64e6 |
| CG17177 | DRSC10257 | 3.61e6 | 4.05e6 |
| CG32576 | DRSC19136 | 3.67e6 | 4.17e6 |
| CG13386 | DRSC02260 | 3.51e6 | 3.91e6 |
| mRpL38 | DRSC19734 | 3.82e6 | 4.21e6 |
| CG3330 | DRSC15477 | 3.57e6 | 4.01e6 |
| tap | DRSC11402 | 3.53e6 | 3.97e6 |
| eg | DRSC11885 | 3.58e6 | 4.05e6 |
| CG14624 | DRSC18634 | 3.40e6 | 3.89e6 |
| Pgant7 | DRSC19991 | 3.57e6 | 4.17e6 |
| Cdk4 | DRSC07358 | 3.63e6 | 4.08e6 |
| CG13245 | DRSC02243 | 3.46e6 | 3.75e6 |
| CG7079 | DRSC16192 | 3.40e6 | 3.88e6 |
| CG5180 | DRSC15731 | 3.60e6 | 4.07e6 |
| Nepl11 | DRSC12333 | 3.58e6 | 4.04e6 |
| Ilk | DRSC11868 | 1.84e6 | 4.00e6 |
| CG31249 | DRSC16248 | 3.44e6 | 3.98e6 |
| CG44251 | DRSC06856 | 3.62e6 | 4.09e6 |
| atk | DRSC11418 | 3.40e6 | 3.85e6 |
| atk | DRSC11769 | 3.47e6 | 3.96e6 |

Part of the list above, limited to “mean viability with MMS”:
CG17177 [DRSC10257]	3.61e6
CG32576 [DRSC19136]	3.67e6
